From PubChem BioAssay AID248 (DTP/NCI, 2004)
The list shows only some results of the screen, not a fair sample: it is rich in T/C values a quarter to a half above the control, in often repeated tests (any T/C) and in doses without a T/C. Other doses and runs of a compound stand elsewhere. T/C is the treated group as % of the vehicle group. Some entries give survivors of the animals treated and no T/C: the source holds a T/C of zero for them, seemingly a mark for toxic or unscored doses. Some survivor counts are full or nearly so, which does not show that the dose was tolerated: survival well below the control is almost never listed, so the zero probably covers shortened survival too. Survivors were counted at the toxicity check, usually on the fifth day, unless a day is given; later deaths do not show. Schedules are NCI's codes, read here as Q, the interval in days (D) or hours (H), X, the number of doses. Some schedule codes hold Z or #, which are not explained here. Where survival is the endpoint, this PubChem deposit counts one and a half times the control or more as active, and values a quarter to a half above the control carry no call in these data; other NCI protocols may use other cut-offs. Some entries hold several experiments; the values are given in rising order. Marks such as (2×) say how often a value occurs here.

Test system: L1210 leukemia ip in BDF1 mice, survival T/C
Assay: NCI In Vivo Anticancer Drug Screen. Data for tumor model L1210 Leukemia (intraperitoneal) in B6D2F1 (BDF1) mice
Conditions: T/C endpoint: mean survival time, higher T/C = longer survival
[1] = dose: 200.0 mg/kg/injection, schedule: Q04DX003 (ip), vehicle: saline
[2] = dose: 400.0 mg/kg/injection, schedule: Q04DX003 (ip), vehicle: saline
[3] = dose: 200.0 mg/kg/injection, schedule: Q01DX009 (ip), vehicle: saline
[4] = dose: 100.0 mg/kg/injection, schedule: Q01DX009 (ip), vehicle: saline with Tween-80
[5] = dose: 200.0 mg/kg/injection, schedule: Q01DX009 (ip), vehicle: saline with Tween-80
[6] = dose: 400.0 mg/kg/injection, schedule: Q01DX009 (ip), vehicle: saline with Tween-80
[7] = dose: 400.0 mg/kg/injection, schedule: Q01DX009 (ip), vehicle: Klucel (hydroxypropylcellulose) (HPC)
[8] = dose: 100.0 mg/kg/injection, schedule: Q04DX002 (ip), vehicle: saline with Tween-80
[9] = dose: 200.0 mg/kg/injection, schedule: Q04DX003 (ip), vehicle: Klucel (hydroxypropylcellulose) (HPC)
[10] = dose: 400.0 mg/kg/injection, schedule: Q04DX003 (ip), vehicle: Klucel (hydroxypropylcellulose) (HPC)
[11] = dose: 400.0 mg/kg/injection, schedule: Q04DX002 (ip), vehicle: saline
[12] = dose: 200.0 mg/kg/injection, schedule: Q01DX009 (ip), vehicle: Klucel (hydroxypropylcellulose) (HPC)
[13] = dose: 400.0 mg/kg/injection, schedule: Q01DX001 (ip), vehicle: saline
[14] = dose: 50.0 mg/kg/injection, schedule: Q01DX009 (ip), vehicle: saline with Tween-80

Q: `OCC1(c2ccccc2)CCCC1(CO)c1ccccc1` (stereo unspecified) was tested. Which survivor count (dose: 75.0 mg/kg/injection, schedule: Q01DX001 (ip), vehicle: carboxymethylcellulose (CMC)) did it give?
A: 3 of 6

Q: What about the survivor count (dose: 150.0 mg/kg/injection, schedule: Q01DX001 (ip), vehicle: carboxymethylcellulose (CMC)) of the same compound?
A: 1 of 6

Q: And the survivor count (dose: 300.0 mg/kg/injection, schedule: Q01DX001 (ip), vehicle: carboxymethylcellulose (CMC))?
A: 1 of 6

Q: `CCOC(=O)c1ccc(NCC(C)(C)N)cc1` was tested. Which survivor count [1] did it give?
A: 0 of 6

Q: And the survivor count [2]?
A: 0 of 6

Q: For `CCN(CC)CCOc1c(C(C)C)cccc1C(C)C`, which survivor count (dose: 100.0 mg/kg/injection, schedule: Q01DX009 (ip), vehicle: saline) is on record?
A: 3 of 6

Q: And the survivor count [3]?
A: 0 of 6

Q: What about the survivor count [1] of the same compound?
A: 1 of 6

Q: What about the survivor count [2] of the same compound?
A: 0 of 6

Q: With `CCOC(=O)CNC(=O)Oc1ccc(C=O)cc1OC` as the compound, how does the survivor count [4] read?
A: 6 of 6

Q: What about the survivor count [5] of the same compound?
A: 3 of 6

Q: And the survivor count [6]?
A: 0 of 6

Q: For `CC1(C)c2ccccc2C(O)(CCl)c2ccccc21`, which survivor count [4] is on record?
A: 6 of 6

Q: And the survivor count [5]?
A: 0 of 6

Q: And the survivor count [6]?
A: 0 of 6

Q: For `O=C(C[n+]1ccccc1/C=N/O)c1ccccc1`, which survivor count (dose: 150.0 mg/kg/injection, schedule: Q01DX001 (ip), vehicle: other) is on record?
A: 1 of 6

Q: What about the survivor count (dose: 300.0 mg/kg/injection, schedule: Q01DX001 (ip), vehicle: other) of the same compound?
A: 1 of 6

Q: For `O=C(O)c1cccnc1`, which survivor count [7] is on record?
A: 2 of 6

Q: Which survivor count (dose: 150.0 mg/kg/injection, schedule: Q01DX001 (ip), vehicle: saline) does the source give for `CCCCCCC(CC)NCCO` (stereo unspecified) here?
A: 0 of 6

Q: What about the survivor count (dose: 300.0 mg/kg/injection, schedule: Q01DX001 (ip), vehicle: saline) of the same compound?
A: 0 of 6

Q: `CCOc1ccc(N=Cc2cccc([N+](=O)[O-])c2)cc1` was tested. Which T/C [8] did it give?
A: 94, 95, 101 % of control

Q: And the survivor count [8]?
A: 3 of 3

Q: What about the T/C (dose: 200.0 mg/kg/injection, schedule: Q04DX002 (ip), vehicle: saline with Tween-80) of the same compound?
A: 87, 92, 94, 105 % of control

Q: And the T/C (dose: 400.0 mg/kg/injection, schedule: Q04DX002 (ip), vehicle: saline with Tween-80)?
A: 91, 94 (2×), 97 % of control

Q: What does the source list for `CCCCSC1=CC(=O)c2ccccc2C1=O`?
A: survivor count (dose: 25.0 mg/kg/injection, schedule: Q04DX003 (ip), vehicle: Klucel (hydroxypropylcellulose) (HPC)): 6 of 6; survivor count (dose: 50.0 mg/kg/injection, schedule: Q04DX003 (ip), vehicle: Klucel (hydroxypropylcellulose) (HPC)): 4 of 6; survivor count (dose: 100.0 mg/kg/injection, schedule: Q04DX003 (ip), vehicle: Klucel (hydroxypropylcellulose) (HPC)): 1 of 6; survivor count [9]: 3 of 6; survivor count [10]: 0 of 6

Q: Which survivor count (dose: 40.0 mg/kg/injection, schedule: Q04DX003 (ip), vehicle: Klucel (hydroxypropylcellulose) (HPC)) does the source give for `O=CNC(Cc1ccccc1)Cc1ccccc1` here?
A: 3 of 6

Q: And the survivor count (dose: 80.0 mg/kg/injection, schedule: Q04DX003 (ip), vehicle: Klucel (hydroxypropylcellulose) (HPC))?
A: 0 of 6

Q: What does the source list for `Nc1cncc2ccccc12`?
A: survivor count (dose: 200.0 mg/kg/injection, schedule: Q04DX003 (ip), vehicle: gum acacia): 1 of 6; survivor count (dose: 400.0 mg/kg/injection, schedule: Q04DX003 (ip), vehicle: gum acacia): 0 of 6

Q: With `CCCCCCCCSCCC(=O)O` as the compound, how does the survivor count [6] read?
A: 6 of 6

Q: For `C1CC2CC1C1CNCC21` (stereo unspecified), which survivor count (dose: 200.0 mg/kg/injection, schedule: Q04DX002 (ip), vehicle: Klucel (hydroxypropylcellulose) (HPC)) is on record?
A: 1 of 3

Q: Which results are given for `O=C(CCl)NCCCC1CCCCC1`?
A: survivor count (dose: 100.0 mg/kg/injection, schedule: Q04DX002 (ip), vehicle: saline): 2 of 3; survivor count (dose: 200.0 mg/kg/injection, schedule: Q04DX002 (ip), vehicle: saline): 0 of 3; survivor count [11]: 0 of 3

Q: With `CC(C)(SC(c1ccccc1)(c1ccccc1)c1ccccc1)C(N)C(=O)O` (stereo unspecified) as the compound, how does the survivor count (dose: 50.0 mg/kg/injection, schedule: Q01DX009 (ip), vehicle: saline) read?
A: 5 of 8

Q: `COc1ccc(/C=C/[N+](=O)[O-])cc1` was tested. Which survivor count (dose: 50.0 mg/kg/injection, schedule: Q04DX002 (ip), vehicle: other) did it give?
A: 3 of 3

Q: And the survivor count (dose: 100.0 mg/kg/injection, schedule: Q04DX002 (ip), vehicle: other)?
A: 0 of 3

Q: Which survivor count (dose: 200.0 mg/kg/injection, schedule: Q01DX001 (ip), vehicle: steroid suspending solution) does the source give for `NC1=NC(CCc2ccccc2)N(c2ccc(Cl)cc2)C(N)=N1` (stereo unspecified) here?
A: 1 of 6

Q: And the survivor count (dose: 400.0 mg/kg/injection, schedule: Q01DX001 (ip), vehicle: steroid suspending solution)?
A: 0 of 6

Q: How did the survivor count [12] turn out when `c1ccc(COc2ccccn2)cc1` was run?
A: 3 of 6

Q: And the survivor count [10]?
A: 6 of 6

Q: For `O=C(/C(=C/c1ccccc1)CN1CCOCC1)c1ccccc1`, which survivor count [9] is on record?
A: 4 of 6

Q: What about the survivor count [10] of the same compound?
A: 0 of 6

Q: With `O=c1[nH]c(=O)c2cccnc2[nH]1` as the compound, how does the survivor count [3] read?
A: 2 of 6

Q: And the survivor count [13]?
A: 2 of 6

Q: Which survivor count (dose: 100.0 mg/kg/injection, schedule: Q01DX009 (ip), vehicle: other) does the source give for `ClCCN(CCCl)c1ccc(/C=C\c2ccnc3ccccc23)cc1` here?
A: 6 of 6

Q: And the survivor count (dose: 200.0 mg/kg/injection, schedule: Q01DX009 (ip), vehicle: carboxymethylcellulose (CMC))?
A: 6 of 6

Q: And the survivor count (dose: 400.0 mg/kg/injection, schedule: Q01DX009 (ip), vehicle: carboxymethylcellulose (CMC))?
A: 6 of 6

Q: What about the survivor count (dose: 400.0 mg/kg/injection, schedule: Q01DX009 (ip), vehicle: other) of the same compound?
A: 5 of 6

Q: `O=C(O)C(Cc1cc(I)c(O)c(I)c1)c1ccccc1` (stereo unspecified) was tested. Which survivor count [10] did it give?
A: 1 of 6

Q: For `c1ccc2c(CC3=NCCN3)cccc2c1`, which survivor count [14] is on record?
A: 3 of 6

Q: For `O=C(CCNc1ccccc1)c1ccccc1`, which survivor count [3] is on record?
A: 0 of 3

Q: And the survivor count [11]?
A: 0 of 3

Q: `Cc1ccc(S(=O)(=O)OCCOS(=O)(=O)c2ccc(C)cc2)cc1` was tested. Which survivor count [10] did it give?
A: 6 of 6

Q: `Nc1cc(N)nc(S(=O)O)n1` was tested. Which survivor count [9] did it give?
A: 2 of 6

Q: What about the survivor count [10] of the same compound?
A: 0 of 6

Q: How did the survivor count (dose: 8.0 mg/kg/injection, schedule: Q01DX Z (ip), vehicle: carboxymethylcellulose (CMC)) turn out when `Clc1ccc2c[n+]3ccccc3cc2c1` was run?
A: 0 of 6

Q: And the survivor count (dose: 16.0 mg/kg/injection, schedule: Q01DX Z (ip), vehicle: carboxymethylcellulose (CMC))?
A: 0 of 6

Q: What about the survivor count (dose: 32.0 mg/kg/injection, schedule: Q01DX Z (ip), vehicle: carboxymethylcellulose (CMC)) of the same compound?
A: 0 of 6

Q: And the survivor count (dose: 64.0 mg/kg/injection, schedule: Q01DX Z (ip), vehicle: carboxymethylcellulose (CMC))?
A: 0 of 6

Q: `CC(C)N=C(NC(C)C)N1CC1` was tested. Which survivor count (dose: 80.0 mg/kg/injection, schedule: Q01DX001 (ip), vehicle: saline) did it give?
A: 2 of 7

Q: And the survivor count (dose: 100.0 mg/kg/injection, schedule: Q01DX001 (ip), vehicle: saline)?
A: 1 of 6

Q: What about the survivor count (dose: 200.0 mg/kg/injection, schedule: Q01DX001 (ip), vehicle: saline) of the same compound?
A: 0 of 6

Q: What about the survivor count [13] of the same compound?
A: 0 of 6

Q: How did the survivor count [12] turn out when `OC(COc1cccc2ccccc12)CN1CC=C(c2ccccc2)CC1` (stereo unspecified) was run?
A: 0 of 6

Q: What about the survivor count [7] of the same compound?
A: 0 of 6

Q: What does the source list for `O=c1[nH]cnc2[nH]cc([N+](=O)[O-])c12`?
A: survivor count (dose: 50.0 mg/kg/injection, schedule: Q01DX001 (ip), vehicle: carboxymethylcellulose (CMC)): 4 of 4; survivor count (dose: 100.0 mg/kg/injection, schedule: Q01DX001 (ip), vehicle: carboxymethylcellulose (CMC)): 4 of 4

Q: `CCC1(CC)COC(=O)NC1=O` was tested. Which survivor count [14] did it give?
A: 0 of 6

Q: What about the survivor count (dose: 50.0 mg/kg/injection, schedule: Q04DX003 (ip), vehicle: saline) of the same compound?
A: 0 of 4

Q: And the survivor count [4]?
A: 0 of 6

Q: What about the survivor count (dose: 100.0 mg/kg/injection, schedule: Q04DX003 (ip), vehicle: saline) of the same compound?
A: 0 of 4

Q: What about the survivor count [5] of the same compound?
A: 0 of 6

Q: And the survivor count [6]?
A: 0 of 6

Q: Which results are given for `C=CCCCCCCCCC(=O)N(C)OC`?
A: survivor count [5]: 6 of 6; survivor count [6]: 1 of 6

Q: For `OCC(O)C(O)C(O)C(O)C1SCCS1` (stereo unspecified), which survivor count [9] is on record?
A: 6 of 6
